Laboratory results published in the supplement of paper PMC4604168 (melanoma cell lines).
This is one part of the list. Single values are uncertain, as repeats are few or missing.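 Cells were imaged in 1,536-well plates, and nuclei stained with an antibody against cleaved PARP were counted against all DNA-stained nuclei to give the apoptosis fraction. Screening doses were chosen to leave most cells alive, and resting and induced cleaved-PARP levels differ strongly between cell lines.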

What was measured:
Test in all cases: cleaved PARP positive nuclei fraction relative to DMSO control; melanoma cells; higher = more apoptosis
Settings in all cases: library dose: low library concentration; 72 h
[1] = tested on: 501Mel
[2] = tested on: A101D
[3] = tested on: A2058
[4] = tested on: A375
[5] = tested on: C32
[6] = tested on: CBRC013 (line from a melanoma biopsy)
[7] = tested on: CBRC014 (line from a melanoma biopsy)
[8] = tested on: CBRC016 (line from a melanoma biopsy)
[9] = tested on: CBRC017 (line from a melanoma biopsy)

Compound | cleaved PARP positive nuclei fraction [1] | cleaved PARP positive nuclei fraction [2] | cleaved PARP positive nuclei fraction [3] | cleaved PARP positive nuclei fraction [4] | cleaved PARP positive nuclei fraction [5] | cleaved PARP positive nuclei fraction [6] | cleaved PARP positive nuclei fraction [7] | cleaved PARP positive nuclei fraction [8] | cleaved PARP positive nuclei fraction [9]
Cc1ccc(NC(=O)c2cccc(N(C)C)c2)cc1NC(=O)c1ccc(O)cc1 + COC(=O)c1sccc1S(=O)(=O)Nc1ccc(Nc2ccccc2)cc1OC [GSK0660] (first compound 2 µM, partner dose 1 µM) | 154% | 108% | 111% | 61.8% | 55.8% | 129% | 113% | 57% | 114%
C#Cc1cccc(Nc2ncnc3cc(OCCOC)c(OCCOC)cc23)c1 [erlotinib] + COc1cc2ncnc(Nc3ccc(Oc4ccccc4)cc3)c2cc1OC [SrcI1] (first compound 0.8 µM, partner dose 2 µM) | 176% | 189% | 64.6% | 152% | 96.9% | 111% | 92.8% | 39.3% | 88.2%
COCC[n+]1c2c(n(Cc3cnccn3)c1C)C(=O)c1ccccc1C2=O + CC(C)CCN1c2nc(Nc3cc(F)c(O)c(F)c3)ncc2N(C)C(=O)C1C [BID1870] (first compound 0.0004 µM, partner dose 0.2 µM) | 70.5% | 471% | 202% | 414% | 95.4% | 81.9% | 94.4% | 180% | 82.5%
NC(=O)Nc1cc(-c2cccc(F)c2)sc1C(=O)N[C@H]1CCCNC1 + c1cc(-c2cnn3cc(-c4ccc(OCCN5CCCCC5)cc4)cnc23)ccn1 [Dorsomorphin] (first compound 0.02 µM, partner dose 0.4 µM) | 27.8% | 81.8% | 69.3% | 445% | 152% | 136% | 116% | 54.3% | 86.6%
Cn1cncc1[C@@](N)(c1ccc(Cl)cc1)c1ccc2c(c1)c(-c1cccc(Cl)c1)cc(=O)n2C [tipifarnib] + Cc1cc([N+](=O)[O-])ccc1NS(=O)(=O)c1cc(Cl)ccc1Cl [FH535] (first compound 0.01 µM, partner dose 1 µM) | 102% | 118% | 81.7% | 130% | 150% | 301% | 152% | 1640% | 374%
Nc1cccc2c1CN(C1CCC(=O)NC1=O)C2=O (stereo unspecified) [lenalidomide] + O=C(O)C(=O)Nc1sc2c(c1C(=O)O)CCNC2 [TCS401] (first compound 1 µM, partner dose 1.66667 µM) | 304% | 55.5% | 68.6% | 48.4% | 92.7% | 103% | 80.3% | 34.1% | 69.1%
COCC[n+]1c2c(n(Cc3cnccn3)c1C)C(=O)c1ccccc1C2=O + O=S(=O)(c1ccccc1)N(CC(F)(F)F)c1ccc(C(O)(C(F)(F)F)C(F)(F)F)cc1 [T0901317] (first compound 0.0004 µM, partner dose 1.4 µM) | 61.4% | 60.1% | 422% | 362% | 135% | 71.1% | 87.1% | 92.6% | 298%
CC1(C)NC(=O)N(c2ccc([N+](=O)[O-])c(C(F)(F)F)c2)C1=O [nilutamide] + COc1cc(N2CCC(N3CCN(C)CC3)CC2)ccc1Nc1ncc(Cl)c(Nc2ccccc2S(=O)(=O)C(C)C)n1 [NVP-TAE684] (first compound 1 µM, partner dose 0.08 µM) | 72.7% | 181% | 99% | 77.8% | 137% | 293% | 87.6% | 90.9% | 89.7%
C[C@]1(c2nc3c(C(N)=O)cccc3[nH]2)CCCN1 [Veliparib] + CCN(CC)CCCCNc1ncc2cc(-c3cc(OC)cc(OC)c3)c(NC(=O)NC(C)(C)C)nc2n1 [PD173074] (first compound 1.4 µM, partner dose 0.1 µM) | 72.1% | 96.3% | 109% | 99.4% | 127% | 127% | 98.6% | 66.2% | 90.1%
O=C(Nc1cccc(Cl)c1)Nc1ncc(CCNc2ncnc3ccsc23)s1 + CCN(CC)CCCCNc1ncc2cc(-c3cc(OC)cc(OC)c3)c(NC(=O)NC(C)(C)C)nc2n1 [PD173074] (first compound 0.0008 µM, partner dose 0.1 µM) | 169% | 146% | 30.9% | 144% | 133% | 54.4% | 104% | 81.5% | 90.8%
C[C@@H]1CCN(C(=O)CC#N)C[C@@H]1N(C)c1ncnc2[nH]ccc12 + COc1ccc(COc2ccc(Cc3cnc(N)nc3N)cc2OC)cc1 [GW2580] (first compound 1 µM, partner dose 1 µM) | 68.3% | 170% | 28.5% | 24.5% | 94.2% | 124% | 162% | 70.2% | 123%
CC1(C)NC(=O)N(c2ccc([N+](=O)[O-])c(C(F)(F)F)c2)C1=O [nilutamide] + COc1cc2ncnc(Nc3ccc(Oc4ccccc4)cc3)c2cc1OC [SrcI1] (first compound 1 µM, partner dose 2 µM) | 73.1% | 148% | 21.1% | 104% | 48.6% | 56.1% | 68.2% | 50.3% | 79.1%
O=C(CCCCCCC(=O)Nc1ccccc1)NO [vorinostat] + Cn1cc(/C=C2\C(=O)Nc3cccnc32)c2ccccc21 [GW441756] (first compound 0.08 µM, partner dose 0.4 µM) | 59% | 107% | 920% | 81.4% | 200% | 61.9% | 90.6% | 97.8% | 107%
C=CCn1c(=O)c2cnc(Nc3ccc(N4CCN(C)CC4)cc3)nc2n1-c1cccc(C(C)(C)O)n1 + Oc1cc(-c2nc(-c3ccccc3)[nH]c2-c2ccncc2)ccc1Cl [L779450] (first compound 0.02 µM, partner dose 0.2 µM) | 34.9% | 63.2% | 125% | 1500% | 148% | 271% | 155% | 59.1% | 77.4%
O=C(Nc1cccc(Cl)c1)Nc1ncc(CCNc2ncnc3ccsc23)s1 + COc1ccc(COc2ccc(Cc3cnc(N)nc3N)cc2OC)cc1 [GW2580] (first compound 0.0008 µM, partner dose 1 µM) | 51.9% | 102% | 55.1% | 111% | 193% | 106% | 92.7% | 134% | 95.4%
C[C@]1(c2nc3c(C(N)=O)cccc3[nH]2)CCCN1 [Veliparib] + COc1ccc2c(c1)CCC1C2CCC2(C)C(NCCCCCCN3C(=O)C=CC3=O)CCC12 [U73122] (first compound 1.4 µM, partner dose 0.4 µM) | 137% | 185% | 99.8% | 305% | 137% | 49.3% | 104% | 109% | 96.6%
CC(C)(C)c1cnc(CSc2cnc(NC(=O)C3CCNCC3)s2)o1 + Oc1nc(-c2ccc(C(F)(F)F)cc2)nc2c1CSCC2 [XAV939] (first compound 0.01 µM, partner dose 2 µM) | 66.1% | 50.5% | 247% | 54.4% | 146% | 247% | 103% | 58.4% | 87%
CC1(C)NC(=O)N(c2ccc([N+](=O)[O-])c(C(F)(F)F)c2)C1=O [nilutamide] + COc1ccc(-c2ccc3c(N4CCOCC4)nc(N4C[C@@H](C)O[C@@H](C)C4)nc3n2)cc1CO [KU0063794] (first compound 1 µM, partner dose 0.02 µM) | 61.1% | 104% | 21.7% | 102% | 97.2% | 135% | 78.3% | 70.5% | 67.1%
CO[C@@H]1[C@H](N(C)C(=O)c2ccccc2)C[C@H]2O[C@]1(C)n1c3ccccc3c3c4c(c5c6ccccc6n2c5c31)C(=O)NC4 [Midostaurin] + O=S(=O)(c1ccccc1)N(CC(F)(F)F)c1ccc(C(O)(C(F)(F)F)C(F)(F)F)cc1 [T0901317] (first compound 0.08 µM, partner dose 1.4 µM) | 144% | 38.9% | 97.3% | 101% | 188% | 108% | 117% | 58.7% | 76.4%
CC1(C)NC(=O)N(c2ccc([N+](=O)[O-])c(C(F)(F)F)c2)C1=O [nilutamide] + CCCCCCCCCCCC1=C(O)C(=O)C=C(O)C1=O [Embelin] (first compound 1 µM, partner dose 1.2 µM) | 63.4% | 56.8% | 73% | 74.6% | 53.2% | 84.1% | 107% | 46% | 74.5%
C[C@@H]1CCN(C(=O)CC#N)C[C@@H]1N(C)c1ncnc2[nH]ccc12 + N#Cc1c(O)c2c(-c3ccc(-c4ccccc4O)cc3)csc2[nH]c1=O [A769662] (first compound 1 µM, partner dose 2 µM) | 80.9% | 152% | 54.2% | 49.6% | 55.4% | 148% | 101% | 55.1% | 79.3%
Cn1nnc2c(C(N)=O)ncn2c1=O [temozolomide] + CCCCCCCCCCCC1=C(O)C(=O)C=C(O)C1=O [Embelin] (first compound 2 µM, partner dose 1.2 µM) | 77.7% | 58.2% | 93.9% | 184% | 164% | 192% | 114% | 20.4% | 66.6%
Cc1ccc(NC(=O)c2cccc(N(C)C)c2)cc1NC(=O)c1ccc(O)cc1 + COc1cc2ncnc(Nc3ccc(Oc4ccccc4)cc3)c2cc1OC [SrcI1] (first compound 2 µM, partner dose 2 µM) | 41.6% | 257% | 40.8% | 69.9% | 178% | 191% | 108% | 83.8% | 121%
O=C(CCCCCCC(=O)Nc1ccccc1)NO [vorinostat] + COC(=O)c1sccc1S(=O)(=O)Nc1ccc(Nc2ccccc2)cc1OC [GSK0660] (first compound 0.08 µM, partner dose 1 µM) | 265% | 50.6% | 54.6% | 43.9% | 113% | 90.2% | 115% | 35.8% | 43.1%

Complete entries, quoted from the list. Values in the order: cleaved PARP positive nuclei fraction [1]	cleaved PARP positive nuclei fraction [2]	cleaved PARP positive nuclei fraction [3]	cleaved PARP positive nuclei fraction [4]	cleaved PARP positive nuclei fraction [5]	cleaved PARP positive nuclei fraction [6]	cleaved PARP positive nuclei fraction [7]	cleaved PARP positive nuclei fraction [8]	cleaved PARP positive nuclei fraction [9]
C=CCn1c(=O)c2cnc(Nc3ccc(N4CCN(C)CC4)cc3)nc2n1-c1cccc(C(C)(C)O)n1 + Oc1cc(-c2nc(-c3ccccc3)[nH]c2-c2ccncc2)ccc1Cl [L779450] (first compound 0.02 µM, partner dose 0.2 µM) is entered as 34.9%	63.2%	125%	1500%	148%	271%	155%	59.1%	77.4%
C[C@@H]1CCN(C(=O)CC#N)C[C@@H]1N(C)c1ncnc2[nH]ccc12 + N#Cc1c(O)c2c(-c3ccc(-c4ccccc4O)cc3)csc2[nH]c1=O [A769662] (first compound 1 µM, partner dose 2 µM) is entered as 80.9%	152%	54.2%	49.6%	55.4%	148%	101%	55.1%	79.3%
